In the supplement of paper PMC10689618:
Counter-ions that a name gives are not always drawn. The list shows a part of the results. Single values are uncertain, as repeats are few or missing.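 Primary human fetal astrocytes engulfed labelled rat cortical synaptosomes, measured as a red/green ratio corrected for calcein live-cell signal and scaled to the plate median. Toxicity meant calcein falling over 30%; decreased phagocytosis meant below 70% of median above 5 µM.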

Legend:
[1] = tested on: Human fetal astrocytes; test: loss of total cells relative to no-compound high-control median (toxicity); higher = more toxic (fewer cells); conditions: 24 h
[2] = tested on: Human fetal astrocytes; test: synaptosome phagocytosis (pHrodo/calcein intensity ratio) relative to plate median of data wells; higher = more phagocytosis; conditions: 24 h

Structure (SMILES) | loss of total cells ([1]; 1.39 µM) | loss of total cells ([1]; 2.78 µM) | loss of total cells ([1]; 5.56 µM) | loss of total cells ([1]; 11.11 µM) | loss of total cells ([1]; 22.22 µM) | synaptosome phagocytosis ([2]; 1.39 µM) | synaptosome phagocytosis ([2]; 2.78 µM) | synaptosome phagocytosis ([2]; 5.56 µM) | synaptosome phagocytosis ([2]; 11.11 µM) | synaptosome phagocytosis ([2]; 22.22 µM)
CNCCc1ccc(O)c(O)c1 [N-Methyldopamine hydrochloride] | -2.1% | -5.1% | -14% | -1.3% | 18.4% | 109% | 94.8% | 91.8% | 86% | 74.5%
COc1cc(CCN)ccc1O [3-Methoxy-4-hydroxyphenethylamine hydrochloride] | -14.7% | 12.2% | -8.9% | 9.5% | -15% | 85.4% | 54.4% | 102% | 79.2% | 100%
Fc1ccc(C(OCCN2CCN(CCCc3ccccc3)CC2)c2ccc(F)cc2)cc1 | 9.6% | 0% | 16.5% | 10.3% | 36.8% | 95.1% | 77.9% | 92.5% | 95.5% | 67.2%
CCC1(C2=NCCN2)Cc2ccccc2O1 (stereo not given) [Efaroxan hydrochloride] | 1.3% | -21.4% | 5.8% | -11.2% | 0.8% | 103% | 70.3% | 68.1% | 110% | 135%
c1ccc2c(c1)OCC(C1=NCCN1)O2 (stereo not given) [Idazoxan hydrochloride] | -11.8% | 7.7% | 27.7% | 9.5% | 27.1% | 122% | 133% | 112% | 69.8% | 83.9%
CC(=O)[C@H]1CC[C@H]2[C@@H]3CC[C@H]4C[C@H](O)CC[C@]4(C)[C@H]3C(=O)C[C@]12C [5alpha-Pregnan-3alpha-ol-11,20-dione] | -6.2% | -5% | 1.4% | -1.9% | -1.9% | 126% | 98.2% | 122% | 108% | 147%
C[N+]1(C)[C@@H]2C[C@@H](OC(=O)[C@H](CO)c3ccccc3)C[C@H]1[C@@H]1O[C@@H]12 [(-)-Scopolamine methyl bromide] | 10.9% | -6.3% | -2.2% | -0.4% | -22.2% | 84.1% | 84.3% | 75.8% | 111% | 118%
CCCCc1ccc(C(=O)O)nc1 [Fusaric acid] | -2.1% | -6.8% | 2.5% | -7.6% | 12.8% | 106% | 105% | 136% | 94.8% | 128%
OCc1cnc[nH]1 [4-Imidazolemethanol hydrochloride] | 6.3% | -11.1% | 6.6% | -7.6% | -4% | 141% | 127% | 142% | 114% | 108%
CC12CCC3C(CCC4=C(O)C(=O)CCC43C)C1CCC2=O (stereo not given) [4-Androsten-4-ol-3,17-dione] | -30.5% | -16.5% | -12.4% | -6.7% | -0.4% | 93.4% | 97.7% | 99.2% | 76.5% | 82.1%
O=C[C@H](Cl)[C@@H](O)[C@H](O)[C@H](O)CO [2-Chloro-2-deoxy-D-glucose] | -13% | -20.5% | 9.9% | -20.2% | -2.4% | 116% | 83.8% | 104% | 126% | 122%
N#CC(C#N)=Cc1cc(O)c(O)c(O)c1 [Tyrphostin 25] | -44.4% | -11.7% | 2.2% | -18% | -18.9% | 84.9% | 94% | 102% | 146% | 115%
CN1[C@@H]2CC[C@H]1C[C@@H](OC(=O)C(CO)c1ccccc1)C2 (stereo not given in full) [Atropine sulfate] | 2.6% | -4.5% | -15.2% | -15.7% | 18.4% | 137% | 98.5% | 103% | 123% | 119%
Cn1cnc(CCN)c1 [1-Methylhistamine dihydrochloride] | -16.6% | 16.7% | 12.7% | 22.9% | 18.7% | 102% | 73% | 128% | 104% | 109%
C[C@]12CCC(=O)C=C1CC[C@@H]1[C@@H]2CC[C@]2(C)C(=O)CC[C@@H]12 [4-Androstene-3,17-dione] | -3.3% | -2.7% | -21.7% | -6.7% | 14.7% | 105% | 138% | 129% | 87.7% | 106%
CCCN(CCC)C1Cc2cc(OC)c(OC)cc2C1 | -22% | -18.3% | -8.4% | -15.7% | -11.5% | 104% | 90.9% | 97.2% | 92.1% | 106%
C=CCN1C[C@H](C)N([C@H](c2ccc(C(=O)N(CC)CC)cc2)c2cccc(OC)c2)C[C@H]1C | -4% | -9.3% | 11.2% | -0.4% | -7.4% | 98.8% | 89.1% | 89.1% | 86.9% | 79.1%
Oc1ccc2c3c1O[C@H]1c4[nH]c5c(c4C[C@@]4(O)[C@@H](C2)N(CC2CC2)CC[C@]314)C[C@@]1(O)[C@H]2Cc3ccc(O)c4c3[C@@]1(CCN2CC1CC1)[C@H]5O4 [nor-Binaltorphimine dihydrochloride] | -24.2% | -6.8% | -7% | -18.1% | 0.9% | 99.8% | 118% | 107% | 102% | 111%
C[N+]1(C)CCc2cc3c(cc2[C@H]1[C@@H]1OC(=O)c2c1ccc1c2OCO1)OCO3 [(-)-Bicuculline methbromide, 1(S), 9(R)] | -16.9% | -6% | -32.7% | -1.3% | -7.1% | 110% | 101% | 108% | 139% | 84.2%
